# Data as given in PubChem BioAssay AID588590 (National Center for Advancing Translational Sciences (NCATS), 2011).
# Chains of the proteins cited; added tags and fusions are not shown. Lines headed by an entry give the natural chain unless they say otherwise; changes in a name come on top.
# UniProt Q9UNA4: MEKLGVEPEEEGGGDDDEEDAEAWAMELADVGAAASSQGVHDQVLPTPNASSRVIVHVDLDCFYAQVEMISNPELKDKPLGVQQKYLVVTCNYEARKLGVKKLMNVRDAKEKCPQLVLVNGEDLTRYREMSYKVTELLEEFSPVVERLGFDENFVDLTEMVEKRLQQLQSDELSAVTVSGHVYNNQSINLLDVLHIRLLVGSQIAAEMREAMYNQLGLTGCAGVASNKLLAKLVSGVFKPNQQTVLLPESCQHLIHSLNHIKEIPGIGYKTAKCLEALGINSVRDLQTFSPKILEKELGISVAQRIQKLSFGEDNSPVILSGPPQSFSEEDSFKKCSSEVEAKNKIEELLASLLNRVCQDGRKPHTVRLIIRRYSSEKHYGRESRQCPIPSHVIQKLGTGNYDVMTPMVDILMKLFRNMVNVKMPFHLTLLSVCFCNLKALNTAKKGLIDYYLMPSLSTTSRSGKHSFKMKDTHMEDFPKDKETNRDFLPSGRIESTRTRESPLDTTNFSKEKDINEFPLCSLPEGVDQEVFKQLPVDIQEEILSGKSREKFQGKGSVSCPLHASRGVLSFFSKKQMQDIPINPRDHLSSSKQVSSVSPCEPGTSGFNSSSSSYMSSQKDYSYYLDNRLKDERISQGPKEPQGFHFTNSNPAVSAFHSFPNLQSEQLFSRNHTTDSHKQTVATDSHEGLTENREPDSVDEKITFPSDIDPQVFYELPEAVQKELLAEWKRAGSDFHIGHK
# “And” between values parts separate entries of the source, which are not always exact repeats. Identical values can stand only once. The whole screen tested about 390,000 compounds, of which about 4,000 (1%) were called active. The inconclusive results got no clear call from the source; some entries with a clear call stand among them for comparison. Calls follow the shape of the dose curve; as a rule, active = well fitted inhibition curve with a large enough effect; inconclusive = small, poorly fitted or top-dose-only effect, or another doubt; inactive = no such curve, though single readings can be large or run the other way. Where the call is inconclusive, the potency comes from a doubtful curve fit.
# Target: DNA polymerase iota (Homo sapiens) (UniProt Q9UNA4)
# Experiment: qHTS for Inhibitors of Polymerase Iota
# Conditions: Pol iota fluorescent replication assay, 10 min; series mostly up to 115 µM
# Outline: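 Pol iota at 10 nM preincubated 15 min with compounds at room temperature; reaction started with fluorescent substrate, 50 nM final. Fluorescence read kinetically at 0 and 10 min; buffer-only wells as negative control.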
# Potency is read from the fitted curve at half-maximal effect.
row,Compound,Potency
1,CC(=O)N[C@H](Cc1c[nH]c2ccccc12)C(=O)O,inactive
2,NC(=O)c1cc2cc(Cl)ccc2o/c1=N/NC(=O)c1cccs1,inactive
3,O=C(O)CCCCCn1c(SCC(=O)c2ccc(O)c(O)c2)nc2ccsc2c1=O,"inconclusive: 8.91 µM [inhibitor, full curve, poor fit]"
4,CN1CCN(C(=O)Cn2c(C(F)(F)F)nc3ccccc32)CC1,inactive
5,Cc1ccc(N(Cc2ccccc2)C(=O)c2ccc(C)c(S(=O)(=O)N3CCOCC3)c2)cc1,"inconclusive: 39.8 µM [inhibitor, partial curve, poor fit]"
6,O=C(NC1=C(Nc2ccc(Cl)cc2)C(=O)c2ccccc2C1=O)c1ccccc1,inactive
7,O=C(COC(=O)c1cn(-c2ccccc2)nc1-c1ccccc1)Nc1ncc(Cl)cc1Cl,"inconclusive: 22.4 µM [inhibitor, full curve]"
8,OC(COCc1ccccc1)CN1CCCC1 (stereo unspecified),"inconclusive: 89.1 µM [inhibitor, single point]"
9,O=C(Nc1nnc(S(=O)(=O)N2CCCc3ccccc32)s1)c1ccccc1Br,inactive
10,Cc1ccc2occ(CC(=O)Nc3nnc(C(C)C)s3)c2c1,active: 79.4 µM
11,O=C(CSc1nnc(-c2c[nH]c3ccccc23)o1)N1CCCCC1,"inconclusive: 89.1 µM [inhibitor, single point]"
12,Cn1cnc([N+](=O)[O-])c1S(=O)(=O)Nc1ccccc1,"inconclusive: 79.4 µM [inhibitor, single point]"
13,Cc1ccc(-n2c(CCC(=O)O)ccc2-c2cccs2)cc1,"inconclusive: 28.2 µM [inhibitor, partial curve]"
14,CCOC(=O)c1[nH]c(C)c(CC(C)C)c1C,inactive
15,COc1ccccc1OC(C)C(=O)Nc1ccc(S(=O)(=O)Nc2nccs2)cc1 (stereo unspecified),inactive
16,CC(C)CCNC(=O)C1CCN(c2nc3ccccc3o2)CC1,"inconclusive: 89.1 µM [inhibitor, partial curve, poor fit]"
17,O=C(Cc1cccs1)Nc1ccc2c(c1)C(=O)OC2,"inconclusive: 5.01 µM [inhibitor, full curve, poor fit]"
18,CCOC(=O)c1cnn(-c2ccccc2)c1-n1cccc1C(=O)C(=O)Nc1ccccc1C(F)(F)F,"inconclusive: 50.1 µM [inhibitor, partial curve, poor fit]"
19,CCOc1cc(CNc2ccc(O)cc2)cc(Br)c1OCc1ccccc1,active: 39.8 µM
20,CN(C)CCCN(C(=O)/C=C/c1cccs1)c1nc2c(F)cccc2s1,"inconclusive: 79.4 µM [inhibitor, partial curve]"
21,CCOC(=O)C1=C(CSc2nc(CC)c(C)cc2C#N)OC(N)=C(C#N)C1c1ccc(OC)cc1 (stereo unspecified),"inconclusive: 28.2 µM [inhibitor, single point]"
22,O=C(Oc1ccc(-c2cn3c(n2)SCC3)cc1)c1ccccc1,"inconclusive: 22.4 µM [inhibitor, single point]"

row,Compound,Potency
1,Cc1c(CCC(=O)O)c(=O)oc2cc3occ(-c4ccc(Br)cc4)c3cc12,"inconclusive: 20 µM [inhibitor, single point]"
2,C=COCCNC(=S)Nc1cccc(Cl)c1,"inconclusive: 7.08 µM [inhibitor, partial curve, poor fit]"
3,O=C(Nc1nc2ccc(F)cc2s1)C1CCN(S(=O)(=O)c2cc([N+](=O)[O-])ccc2Cl)CC1,"inconclusive: 22.4 µM [inhibitor, partial curve]"
4,COc1ccccc1CNC(=O)CSC1=NCCS1,"inconclusive: 25.1 µM [inhibitor, partial curve, poor fit]"
5,CN(C)c1ccc(C(CNS(=O)(=O)c2ccc(Cl)cc2)N2CCCC2)cc1 (stereo unspecified),inactive
6,COc1cc(NC(=O)c2cccs2)c(C(=O)OCC(=O)NCc2ccco2)cc1OC,"inconclusive: 10 µM [inhibitor, full curve, poor fit]"
7,CC(C)CN(C(=O)CSc1nc2ccccc2o1)c1c(N)n(Cc2ccccc2)c(=O)[nH]c1=O,"inconclusive: 89.1 µM [inhibitor, single point]"
8,COc1ccc2c(COC(=O)[C@@H]3CCCN3S(=O)(=O)c3ccc(Cl)cc3)cc(=O)oc2c1,"inconclusive: 20 µM [inhibitor, full curve, poor fit]"
9,Cc1n[nH]c(C)c1S(=O)(=O)N1CCCC(C(=O)O)C1 (stereo unspecified),"inconclusive: 5.01 µM [inhibitor, partial curve]"
10,C#CCOCCOCCOCCNc1nc(N2CCN(C(=O)[C@H](CCC(=O)O)n3cc(C(N)CC(C)C)nn3)CC2)nc(N2CCN(C(=O)[C@H](CCC(=O)O)n3cc(C(N)CC(C)C)nn3)CC2)n1 (stereo partly specified),inactive
11,COc1cc(/C=C2\C(=O)ON=C2c2ccccc2)cc(OC)c1OC,inactive
12,O=C(Nc1ccc(Cl)cc1Cl)c1cc(S(=O)(=O)N2CCN(c3ccccc3F)CC2)ccc1F,inactive
13,Cc1ccc(CC2CC(=O)N(Cc3ccco3)C2=O)cc1 (stereo unspecified),"inconclusive: 22.4 µM [inhibitor, partial curve, poor fit]"
14,O=C(O)c1ccc(COc2c(F)c(F)cc(F)c2F)o1,"inconclusive: 31.6 µM [inhibitor, single point]"
15,CC(=O)Nc1ccc(CN2CCN(CCc3ccccc3)C(CCO)C2)cc1 (stereo unspecified),"inconclusive: 1.12 µM [inhibitor, full curve, poor fit]"
16,Cc1ccc(S(=O)(=O)n2nc(OC(=O)c3cccs3)cc2N)cc1,"inconclusive: 31.6 µM [inhibitor, single point]"
17,O=C1CSC(c2cccnc2)N1Cc1cccnc1 (stereo unspecified),"inconclusive: 11.2 µM [inhibitor, partial curve, poor fit]"
18,CCC(C(=O)Nc1cccc(-c2cn3cccnc3n2)c1)c1ccccc1 (stereo unspecified),inactive
19,Cc1c(OCC(=O)NC2CC(C)(C)NC(C)(C)C2)ccc2c1oc(=O)c1ccccc12,"inconclusive: 89.1 µM [inhibitor, single point]"
20,O=[N+]([O-])c1ccc(N=NNc2ccc([N+](=O)[O-])cc2)cc1,"inconclusive: 89.1 µM [inhibitor, single point]"
21,CC1=C(C)C(=O)C(CCCCC#CCCCC#CCO)=C(C)C1=O,"inconclusive: 31.6 µM [inhibitor, single point] and inconclusive: 25.1 µM [inhibitor, full curve, poor fit]"
22,CC1(C)Cc2c(sc3c2C(=O)N(c2ccccc2)C2=NCCCN23)CO1,"inconclusive: 112 µM [inhibitor, single point]"

row,Compound,Potency
1,N#CC(C(=O)Nc1ccc(Cl)c(Cl)c1)=C1Nc2ccccc2N1,"inconclusive: 39.8 µM [inhibitor, partial curve, poor fit]"
2,CCOC(=O)Cc1csc(NC(=O)c2ccc(NC(C)=O)cc2)n1,"inconclusive: 3.55 µM [inhibitor, full curve, poor fit]"
3,NC(=S)n1[nH]c(-c2ccc([N+](=O)[O-])cc2)c(N=Nc2cccc(Cl)c2)c1=O,active: 20 µM
4,N#Cc1ccc(-c2cccs2)nc1SCc1ccc(Cl)cc1Cl,inactive
5,COCC(=O)N(C)C1(c2nnnn2CCOC(=O)Nc2cccc3ccccc23)CCCC1,"inconclusive: 44.7 µM [inhibitor, partial curve, poor fit]"
6,COC(=O)CCC(=O)NC(=S)Nc1ccccc1F,inactive
7,Cc1[nH]c(=O)[nH]c(=O)c1C1N2CC3(C(C)C)CN1CC(C(C)C)(C2)C3=O (stereo unspecified),inactive
8,O=C(C[n+]1ccc2ccccc2c1)c1ccc(O)c(O)c1,"inconclusive: 1.41 µM [inhibitor, full curve, poor fit]"
9,CCN(CC)C(=O)CC(c1ccc(N(C)C)cc1)c1c(OC)cc(OC)c2c(-c3ccccc3)cc(=O)oc12 (stereo unspecified),inactive
10,NC(=O)C1(N2CCCCC2)CCN(C(=O)CSc2nc3ccccc3[nH]2)CC1,"inconclusive: 17.8 µM [inhibitor, full curve, poor fit]"
11,CC(NC(=O)Cc1cccs1)c1ccc2c(c1)OCO2 (stereo unspecified),"inconclusive: 50.1 µM [inhibitor, partial curve]"
12,Cc1ccc(OCCSc2nc3ccccc3n2CC(=O)N2CCOCC2)c(C)c1,inactive
13,Cc1n[nH]c(C)c1CCc1nc2c3ccccc3nc(SCC(=O)Nc3ccccc3F)n2n1,"inconclusive: 15.8 µM [inhibitor, partial curve, poor fit]"
14,CCOC(=O)C1(Cc2ccc(OC)cc2)CCN(C(=O)CCn2cccn2)CC1,inactive
15,CSc1nsc(SCC(=O)Nc2ccc(Br)cn2)n1,"inconclusive: 112 µM [inhibitor, partial curve, poor fit]"
16,O=[N+]([O-])c1ccc(NN=Cc2ccc(O)cc2)nc1,"inconclusive: 31.6 µM [inhibitor, partial curve, poor fit]"
17,Cn1c(NCC2CCCO2)nc2c1c(=O)n(Cc1ccccc1)c(=O)n2C (stereo unspecified),"inconclusive: 89.1 µM [inhibitor, single point]"
18,O=C(NNc1ncnc2c1cnn2-c1ccccc1)c1cccc(Cl)c1,inactive
19,CC(=O)C1=C(C)NC(=O)CC1c1ccccc1Cl (stereo unspecified),"inconclusive: 100 µM [inhibitor, single point]"
20,Cc1ccc(-c2cc(C(=O)N/N=C/c3c[nH]c4ccccc34)n[nH]2)o1,"inconclusive: 25.1 µM [inhibitor, partial curve, poor fit]"
21,CC(=O)c1ccc(S(=O)(=O)N2CCN(C(=O)/C=C/c3ccc4ccccc4n3)CC2)cc1,active: 44.7 µM
22,COCCNC(=O)C1=C(N)C(C(=O)Nc2ccc(C)c(S(=O)(=O)N3CCCCC3)c2)SC1=Nc1ccc(C)cc1C (stereo unspecified),"inconclusive: 11.2 µM [inhibitor, partial curve, poor fit]"
